Results are given in words; binding and its absence hold for the method and conditions named. Some results given as binding are weak or reduced against the parent protein; the word gives no strength. For some assays here: Where a sequence is shown, tags or fusion partners need not be part of it.
Columns and labels:
[1] = target: T1, SNF4-GAD (SNF4 fused to the GAL4 activation domain, plasmid pSE1111) (Saccharomyces cerevisiae) (UniProt P12904); experiment: yeast two-hybrid mating assay, HIS3 reporter with 3-AT
T1 sequence (looked up): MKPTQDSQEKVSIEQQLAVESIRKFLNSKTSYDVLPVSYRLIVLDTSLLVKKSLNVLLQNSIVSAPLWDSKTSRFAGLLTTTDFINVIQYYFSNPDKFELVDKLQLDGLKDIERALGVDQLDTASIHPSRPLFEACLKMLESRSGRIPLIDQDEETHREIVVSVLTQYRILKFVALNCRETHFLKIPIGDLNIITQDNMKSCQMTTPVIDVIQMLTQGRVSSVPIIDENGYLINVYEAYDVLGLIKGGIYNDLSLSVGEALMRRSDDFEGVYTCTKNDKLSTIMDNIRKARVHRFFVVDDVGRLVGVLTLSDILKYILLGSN

Protein sequences, listed by entry. Tags and fused reporters are not part of them. Lines headed by an entry give the natural chain unless they say otherwise; changes in a name come on top. Chains listed by the source or under a name are the forms on record and can include a tag or linker.
VEGF-GAD (Vascular Endothelial Growth Factor fused to the GAL4 activation domain, in pACTSfiI) (P15692, form named): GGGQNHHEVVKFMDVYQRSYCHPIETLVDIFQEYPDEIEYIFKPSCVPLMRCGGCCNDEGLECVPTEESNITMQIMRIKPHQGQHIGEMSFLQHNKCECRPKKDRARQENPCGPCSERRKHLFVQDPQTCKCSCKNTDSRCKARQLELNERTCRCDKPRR
UniProt P04386: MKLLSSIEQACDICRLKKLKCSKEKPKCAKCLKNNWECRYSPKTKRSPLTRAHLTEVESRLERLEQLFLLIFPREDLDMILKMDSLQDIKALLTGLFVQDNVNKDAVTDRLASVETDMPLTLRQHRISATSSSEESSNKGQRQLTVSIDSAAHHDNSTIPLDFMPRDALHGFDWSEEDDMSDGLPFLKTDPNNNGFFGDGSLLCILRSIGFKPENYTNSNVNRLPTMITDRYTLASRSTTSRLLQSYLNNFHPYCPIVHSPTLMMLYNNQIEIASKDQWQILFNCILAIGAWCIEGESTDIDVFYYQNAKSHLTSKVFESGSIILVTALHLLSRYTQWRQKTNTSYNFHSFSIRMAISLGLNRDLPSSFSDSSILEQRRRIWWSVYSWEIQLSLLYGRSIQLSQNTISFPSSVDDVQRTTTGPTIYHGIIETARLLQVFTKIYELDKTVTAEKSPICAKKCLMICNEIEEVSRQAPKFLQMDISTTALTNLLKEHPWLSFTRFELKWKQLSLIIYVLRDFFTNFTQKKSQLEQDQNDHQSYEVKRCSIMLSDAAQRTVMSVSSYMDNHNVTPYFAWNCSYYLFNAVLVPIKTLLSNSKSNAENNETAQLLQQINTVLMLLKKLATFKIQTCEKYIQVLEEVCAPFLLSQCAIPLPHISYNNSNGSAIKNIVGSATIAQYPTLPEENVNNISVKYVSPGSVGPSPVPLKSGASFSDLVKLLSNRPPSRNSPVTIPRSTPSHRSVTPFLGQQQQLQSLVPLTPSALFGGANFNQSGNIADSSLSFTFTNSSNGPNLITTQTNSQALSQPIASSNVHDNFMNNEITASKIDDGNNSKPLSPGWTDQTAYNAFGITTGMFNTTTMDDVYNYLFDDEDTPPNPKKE

[2] = target: VEGF-GAD (Vascular Endothelial Growth Factor fused to the GAL4 activation domain, in pACTSfiI) (Saccharomyces cerevisiae) (UniProt P15692); experiment: yeast two-hybrid mating assay, URA3 and HIS3 reporters with 3-AT

| binding [1] | binding [2] | Substance |
| --- | --- | --- |
| binds |  | SNF1-GBD (SNF1 fused to the GAL4 DNA-binding domain, plasmid pSE1112) (from UniProt P04386 1-147; P06782 1-633) |
|  | binds | VEGF-GBD (Vascular Endothelial Growth Factor fused to the GAL4 DNA-binding domain, in pASSfiI) (from UniProt P04386 1-147; P15692 32-191) |

From patent US20030119002A1
